Drawing on paper PMC7064488, this text covers binding for 2 molecules.

The chains behind the UniProt entries cited, without tags or fusion partners.
UniProt P11802: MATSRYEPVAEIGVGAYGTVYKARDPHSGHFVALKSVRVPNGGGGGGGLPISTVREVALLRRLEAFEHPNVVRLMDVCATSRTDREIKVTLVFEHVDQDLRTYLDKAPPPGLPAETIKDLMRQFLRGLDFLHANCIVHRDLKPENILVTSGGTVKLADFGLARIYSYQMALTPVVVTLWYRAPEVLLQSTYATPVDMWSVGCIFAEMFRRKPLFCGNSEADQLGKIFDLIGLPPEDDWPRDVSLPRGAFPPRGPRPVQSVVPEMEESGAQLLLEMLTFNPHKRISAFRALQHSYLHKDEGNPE
UniProt Q00534: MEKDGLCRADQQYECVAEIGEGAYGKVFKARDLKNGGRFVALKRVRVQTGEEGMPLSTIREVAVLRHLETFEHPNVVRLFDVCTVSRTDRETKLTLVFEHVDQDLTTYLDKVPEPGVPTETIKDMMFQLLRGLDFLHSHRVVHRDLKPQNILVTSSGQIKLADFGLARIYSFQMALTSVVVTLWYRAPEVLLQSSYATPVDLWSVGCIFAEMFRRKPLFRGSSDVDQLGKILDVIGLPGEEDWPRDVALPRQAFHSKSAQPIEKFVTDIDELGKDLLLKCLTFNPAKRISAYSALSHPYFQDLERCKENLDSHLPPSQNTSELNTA

Results are given in words; binding and its absence hold for the method and conditions named. For some assays here: Binding seen in cells or lysates may run through a third protein. Some entries that bind do so weakly or less than the wild type. For some assays here: Sequences can lack the tags named with a protein.

The target in test [1] is CDK4 (human (endogenous in MDA-MB-231 and SUM-159)) (UniProt P11802). As to the kind of experiment: co-IP; MDA-MB-231 and SUM-159 cells lysed in RIPA buffer; lysate precleared, primary antibody or IgG at 4 °C overnight, protein G Dynabeads 4 h; western blotting.
Test [2] concerns the target CDK6 (human (endogenous in MDA-MB-231 and SUM-159)) (UniProt Q00534). The description is as above.
The target in test [3] is T1, zinc-finger E-box binding homeobox 1 (ZEB1), full-length (human (endogenous in MDA-MB-231 and SUM-159)) (UniProt P37275).
T1 sequence: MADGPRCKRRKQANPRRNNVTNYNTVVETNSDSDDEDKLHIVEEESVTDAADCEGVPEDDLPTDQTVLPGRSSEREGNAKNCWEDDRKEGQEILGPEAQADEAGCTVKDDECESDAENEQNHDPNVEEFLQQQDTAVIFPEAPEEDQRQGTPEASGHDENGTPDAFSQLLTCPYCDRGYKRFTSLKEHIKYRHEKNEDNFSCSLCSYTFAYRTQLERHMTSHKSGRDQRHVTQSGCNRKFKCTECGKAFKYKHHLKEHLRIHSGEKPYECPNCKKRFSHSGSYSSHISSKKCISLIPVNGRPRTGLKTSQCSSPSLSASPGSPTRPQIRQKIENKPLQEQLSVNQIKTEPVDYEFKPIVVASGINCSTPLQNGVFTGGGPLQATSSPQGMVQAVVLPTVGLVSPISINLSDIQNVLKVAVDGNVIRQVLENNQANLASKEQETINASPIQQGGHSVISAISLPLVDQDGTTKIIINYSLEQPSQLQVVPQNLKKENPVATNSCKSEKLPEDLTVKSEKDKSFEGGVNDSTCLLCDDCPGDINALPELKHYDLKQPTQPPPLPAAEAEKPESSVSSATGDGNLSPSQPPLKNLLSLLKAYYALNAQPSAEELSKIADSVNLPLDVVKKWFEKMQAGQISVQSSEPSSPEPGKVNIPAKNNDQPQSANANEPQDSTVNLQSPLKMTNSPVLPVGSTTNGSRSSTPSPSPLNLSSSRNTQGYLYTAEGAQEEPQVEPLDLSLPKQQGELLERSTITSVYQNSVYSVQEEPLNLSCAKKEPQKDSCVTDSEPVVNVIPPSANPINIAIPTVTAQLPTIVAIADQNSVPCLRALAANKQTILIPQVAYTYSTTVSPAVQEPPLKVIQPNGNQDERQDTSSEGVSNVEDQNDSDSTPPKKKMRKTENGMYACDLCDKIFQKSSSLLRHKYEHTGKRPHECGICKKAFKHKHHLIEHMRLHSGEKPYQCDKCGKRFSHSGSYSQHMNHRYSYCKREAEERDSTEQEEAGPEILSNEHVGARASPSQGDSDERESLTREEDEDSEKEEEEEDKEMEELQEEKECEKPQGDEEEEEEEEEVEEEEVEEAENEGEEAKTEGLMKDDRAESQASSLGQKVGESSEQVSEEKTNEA
The test is described as above.

The target in test [4] is MBP-CDK4 (UniProt P11802). As to the kind of experiment: pull-down; in vitro binding assay, cell-free: purified His-USP51 incubated with purified MBP fusion protein at 4 °C overnight; AmyloseResin beads; western blotting; both purified.
Test [5] deals with MBP-CDK6 (UniProt Q00534). The test is described as above.

B1: USP51 (enzyme, UniProt Q70EK9 1-711)
chain: MAQVRETSLPSGSGVRWISGGGGGASPEEAVEKAGKMEEAAAGATKASSRREAEEMKLEPLQEREPAPEENLTWSSSGGDEKVLPSIPLRCHSSSSPVCPRRKPRPRPQPRARSRSQPGLSAPPPPPARPPPPPPPPPPPAPRPRAWRGSRRRSRPGSRPQTRRSCSGDLDGSGDPGGLGDWLLEVEFGQGPTGCSHVESFKVGKNWQKNLRLIYQRFVWSGTPETRKRKAKSCICHVCSTHMNRLHSCLSCVFFGCFTEKHIHKHAETKQHHLAVDLYHGVIYCFMCKDYVYDKDIEQIAKETKEKILRLLTSTSTDVSHQQFMTSGFEDKQSTCETKEQEPKLVKPKKKRRKKSVYTVGLRGLINLGNTCFMNCIVQALTHIPLLKDFFLSDKHKCIMTSPSLCLVCEMSSLFHAMYSGSRTPHIPYKLLHLIWIHAEHLAGYRQQDAHEFLIAILDVLHRHSKDDSGGQEANNPNCCNCIIDQIFTGGLQSDVTCQACHSVSTTIDPCWDISLDLPGSCATFDSQNPERADSTVSRDDHIPGIPSLTDCLQWFTRPEHLGSSAKIKCNSCQSYQESTKQLTMKKLPIVACFHLKRFEHVGKQRRKINTFISFPLELDMTPFLASTKESRMKEGQPPTDCVPNENKYSLFAVINHHGTLESGHYTSFIRQQKDQWFSCDDAIITKATIEDLLYSEGYLLFYHKQGLEKD
Turning to B1, the binding result in test [1], in test [2] and in test [3] was “binds” in each case.

B2: His-USP51 (enzyme, UniProt Q70EK9 1-711)
chain: MAQVRETSLPSGSGVRWISGGGGGASPEEAVEKAGKMEEAAAGATKASSRREAEEMKLEPLQEREPAPEENLTWSSSGGDEKVLPSIPLRCHSSSSPVCPRRKPRPRPQPRARSRSQPGLSAPPPPPARPPPPPPPPPPPAPRPRAWRGSRRRSRPGSRPQTRRSCSGDLDGSGDPGGLGDWLLEVEFGQGPTGCSHVESFKVGKNWQKNLRLIYQRFVWSGTPETRKRKAKSCICHVCSTHMNRLHSCLSCVFFGCFTEKHIHKHAETKQHHLAVDLYHGVIYCFMCKDYVYDKDIEQIAKETKEKILRLLTSTSTDVSHQQFMTSGFEDKQSTCETKEQEPKLVKPKKKRRKKSVYTVGLRGLINLGNTCFMNCIVQALTHIPLLKDFFLSDKHKCIMTSPSLCLVCEMSSLFHAMYSGSRTPHIPYKLLHLIWIHAEHLAGYRQQDAHEFLIAILDVLHRHSKDDSGGQEANNPNCCNCIIDQIFTGGLQSDVTCQACHSVSTTIDPCWDISLDLPGSCATFDSQNPERADSTVSRDDHIPGIPSLTDCLQWFTRPEHLGSSAKIKCNSCQSYQESTKQLTMKKLPIVACFHLKRFEHVGKQRRKINTFISFPLELDMTPFLASTKESRMKEGQPPTDCVPNENKYSLFAVINHHGTLESGHYTSFIRQQKDQWFSCDDAIITKATIEDLLYSEGYLLFYHKQGLEKD
In the case of B2, the binding result in test [4] and in test [5] was “binds” in each case.
